Literature values as cited in US20100021555A1, “Compositions containing high omega-3 and low saturated fatty acid levels” (priority 2004, published 2010).
Some entries share one result that the patent states for a list of compounds.

Test system: rumen microorganisms
Settings: fed to cows in fish or micro-algae derived supplements, unprotected from ruminal biohydrogenation; cited from earlier work

CC/C=C\C/C=C\C/C=C\C/C=C\C/C=C\CCCC(=O)O [EPA, 5,8,11,14,17,-eicosapentaenoic acid (20:5n-3)]
hydrogenated by rumen microorganisms: up to 95%
